Some of the results follow.
Assays:
Experiment in all cases: log2 fold change, soluble protein after heating vs DMSO (PISA); higher = thermal stabilisation; K562 cells, 10 uM, 30 min; active = over 0.2 and 3.5 SD of the protein, either way, in both replicates (recomputed)
[1] = compound: NC(=O)c1cnc(N[C@@H]2CCCC[C@@H]2N)nc1Nc1cccc(-n2nccn2)c1
Summary of the method: (§1)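 K562 cells at 2×10^6 cells/mL were treated with 10 μM compound for 30 min. Aliquots were heated for 3 min across 48°C-58°C, pooled, and extracted in PBS with 0.5% NP-40 at 4°C; soluble protein was the supernatant after 21,000xg for 90 min. Soluble protein was quantified by TMTpro 16plex LC-MS/MS with channel sums equalised, and reported as log2 fold change in thermal stability against DMSO controls, with values from duplicates.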

Protein sequences, listed by entry. Tags and fused reporters are not part of them. Lines headed by an entry give the natural chain unless they say otherwise; changes in a name come on top.
UniProt O14810: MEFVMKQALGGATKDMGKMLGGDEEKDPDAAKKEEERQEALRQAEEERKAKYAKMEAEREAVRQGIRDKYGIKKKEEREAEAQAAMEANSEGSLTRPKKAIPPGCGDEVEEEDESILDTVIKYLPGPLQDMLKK
UniProt Q7Z4G1, whole entry, looked up: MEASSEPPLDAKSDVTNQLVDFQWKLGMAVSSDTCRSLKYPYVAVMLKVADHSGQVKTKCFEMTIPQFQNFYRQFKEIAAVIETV
UniProt Q96I36: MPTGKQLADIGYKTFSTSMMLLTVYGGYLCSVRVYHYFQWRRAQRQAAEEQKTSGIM
UniProt Q6UUV7: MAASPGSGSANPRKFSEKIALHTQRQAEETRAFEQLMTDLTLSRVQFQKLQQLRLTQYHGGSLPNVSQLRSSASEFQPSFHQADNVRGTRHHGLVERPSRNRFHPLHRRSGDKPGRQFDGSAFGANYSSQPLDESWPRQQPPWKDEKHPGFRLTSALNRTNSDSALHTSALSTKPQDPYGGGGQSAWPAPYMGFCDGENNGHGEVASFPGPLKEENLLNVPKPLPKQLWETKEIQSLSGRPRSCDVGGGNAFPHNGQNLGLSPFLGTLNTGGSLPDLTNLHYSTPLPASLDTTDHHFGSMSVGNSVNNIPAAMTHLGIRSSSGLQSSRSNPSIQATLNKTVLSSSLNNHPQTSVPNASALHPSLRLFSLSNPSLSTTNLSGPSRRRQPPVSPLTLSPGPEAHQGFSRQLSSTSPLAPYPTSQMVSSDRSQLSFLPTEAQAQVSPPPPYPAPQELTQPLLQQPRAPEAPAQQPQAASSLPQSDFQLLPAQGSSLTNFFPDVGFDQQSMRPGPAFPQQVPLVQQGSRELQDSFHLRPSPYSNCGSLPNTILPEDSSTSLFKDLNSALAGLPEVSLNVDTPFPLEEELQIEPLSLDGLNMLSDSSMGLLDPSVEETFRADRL
UniProt Q14894: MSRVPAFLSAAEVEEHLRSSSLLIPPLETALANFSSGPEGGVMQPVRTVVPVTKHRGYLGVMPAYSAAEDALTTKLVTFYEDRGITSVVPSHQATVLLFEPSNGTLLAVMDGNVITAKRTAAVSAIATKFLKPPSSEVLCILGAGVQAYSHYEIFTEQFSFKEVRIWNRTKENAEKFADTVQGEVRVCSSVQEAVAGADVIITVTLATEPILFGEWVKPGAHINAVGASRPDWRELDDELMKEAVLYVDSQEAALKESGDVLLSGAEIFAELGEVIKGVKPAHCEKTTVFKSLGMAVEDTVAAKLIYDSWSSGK
UniProt Q8N668, whole entry, looked up: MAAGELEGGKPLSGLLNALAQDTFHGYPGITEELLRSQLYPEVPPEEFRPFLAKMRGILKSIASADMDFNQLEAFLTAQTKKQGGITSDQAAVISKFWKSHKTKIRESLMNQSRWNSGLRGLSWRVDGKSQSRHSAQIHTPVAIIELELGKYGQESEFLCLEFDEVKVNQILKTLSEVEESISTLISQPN
UniProt P48729: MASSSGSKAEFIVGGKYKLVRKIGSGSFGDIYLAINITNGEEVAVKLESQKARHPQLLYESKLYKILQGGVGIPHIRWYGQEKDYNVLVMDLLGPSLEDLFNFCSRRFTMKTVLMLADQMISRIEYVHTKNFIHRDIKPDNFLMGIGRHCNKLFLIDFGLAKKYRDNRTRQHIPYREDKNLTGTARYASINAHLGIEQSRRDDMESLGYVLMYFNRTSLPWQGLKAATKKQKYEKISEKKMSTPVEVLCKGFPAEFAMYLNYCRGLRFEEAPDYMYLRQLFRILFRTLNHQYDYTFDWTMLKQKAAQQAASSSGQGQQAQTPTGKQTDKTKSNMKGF
UniProt Q9UJA2: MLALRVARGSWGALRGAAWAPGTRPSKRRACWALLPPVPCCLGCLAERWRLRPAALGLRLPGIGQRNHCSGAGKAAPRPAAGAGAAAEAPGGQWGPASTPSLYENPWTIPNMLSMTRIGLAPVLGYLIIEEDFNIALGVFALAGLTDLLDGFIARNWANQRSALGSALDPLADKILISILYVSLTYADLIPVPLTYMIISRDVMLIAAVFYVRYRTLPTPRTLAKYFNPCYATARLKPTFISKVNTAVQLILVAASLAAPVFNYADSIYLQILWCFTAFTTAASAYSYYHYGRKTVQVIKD
UniProt P29762, whole entry, looked up: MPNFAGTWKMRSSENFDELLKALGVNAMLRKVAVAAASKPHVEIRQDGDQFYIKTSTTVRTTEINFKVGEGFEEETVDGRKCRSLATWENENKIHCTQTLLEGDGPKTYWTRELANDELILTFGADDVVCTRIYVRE
UniProt P15169: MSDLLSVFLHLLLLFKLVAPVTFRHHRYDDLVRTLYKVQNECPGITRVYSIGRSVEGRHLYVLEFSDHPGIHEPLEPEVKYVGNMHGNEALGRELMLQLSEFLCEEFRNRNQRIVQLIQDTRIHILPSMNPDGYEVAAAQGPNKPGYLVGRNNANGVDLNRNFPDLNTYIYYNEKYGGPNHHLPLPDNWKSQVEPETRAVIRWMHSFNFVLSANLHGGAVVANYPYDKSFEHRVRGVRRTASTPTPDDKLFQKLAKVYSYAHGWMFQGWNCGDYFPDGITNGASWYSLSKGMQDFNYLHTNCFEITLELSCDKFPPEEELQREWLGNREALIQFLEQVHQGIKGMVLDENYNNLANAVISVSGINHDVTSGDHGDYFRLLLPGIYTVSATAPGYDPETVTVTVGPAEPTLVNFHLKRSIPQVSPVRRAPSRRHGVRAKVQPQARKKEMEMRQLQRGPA
UniProt Q9UBI1, whole entry, looked up: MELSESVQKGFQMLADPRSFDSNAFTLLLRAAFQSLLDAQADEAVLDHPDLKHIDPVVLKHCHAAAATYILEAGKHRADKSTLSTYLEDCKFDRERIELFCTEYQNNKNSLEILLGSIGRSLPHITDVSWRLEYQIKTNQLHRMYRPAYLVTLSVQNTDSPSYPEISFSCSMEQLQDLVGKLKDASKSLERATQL
UniProt Q9BWP8: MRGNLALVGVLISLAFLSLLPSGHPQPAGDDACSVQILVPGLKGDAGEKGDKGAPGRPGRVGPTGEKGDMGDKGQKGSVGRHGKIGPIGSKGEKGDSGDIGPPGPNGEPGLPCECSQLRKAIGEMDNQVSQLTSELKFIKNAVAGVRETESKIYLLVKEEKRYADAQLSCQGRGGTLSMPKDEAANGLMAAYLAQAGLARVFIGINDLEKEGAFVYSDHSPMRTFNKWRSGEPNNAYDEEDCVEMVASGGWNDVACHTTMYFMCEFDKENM
UniProt Q86T23: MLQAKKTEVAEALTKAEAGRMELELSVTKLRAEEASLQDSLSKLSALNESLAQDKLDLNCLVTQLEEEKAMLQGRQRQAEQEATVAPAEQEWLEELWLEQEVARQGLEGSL
UniProt P29373: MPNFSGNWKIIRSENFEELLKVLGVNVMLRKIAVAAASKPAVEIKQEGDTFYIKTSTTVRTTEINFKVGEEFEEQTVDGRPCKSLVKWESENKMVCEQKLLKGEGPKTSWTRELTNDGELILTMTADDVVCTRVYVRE
UniProt Q9BXS0: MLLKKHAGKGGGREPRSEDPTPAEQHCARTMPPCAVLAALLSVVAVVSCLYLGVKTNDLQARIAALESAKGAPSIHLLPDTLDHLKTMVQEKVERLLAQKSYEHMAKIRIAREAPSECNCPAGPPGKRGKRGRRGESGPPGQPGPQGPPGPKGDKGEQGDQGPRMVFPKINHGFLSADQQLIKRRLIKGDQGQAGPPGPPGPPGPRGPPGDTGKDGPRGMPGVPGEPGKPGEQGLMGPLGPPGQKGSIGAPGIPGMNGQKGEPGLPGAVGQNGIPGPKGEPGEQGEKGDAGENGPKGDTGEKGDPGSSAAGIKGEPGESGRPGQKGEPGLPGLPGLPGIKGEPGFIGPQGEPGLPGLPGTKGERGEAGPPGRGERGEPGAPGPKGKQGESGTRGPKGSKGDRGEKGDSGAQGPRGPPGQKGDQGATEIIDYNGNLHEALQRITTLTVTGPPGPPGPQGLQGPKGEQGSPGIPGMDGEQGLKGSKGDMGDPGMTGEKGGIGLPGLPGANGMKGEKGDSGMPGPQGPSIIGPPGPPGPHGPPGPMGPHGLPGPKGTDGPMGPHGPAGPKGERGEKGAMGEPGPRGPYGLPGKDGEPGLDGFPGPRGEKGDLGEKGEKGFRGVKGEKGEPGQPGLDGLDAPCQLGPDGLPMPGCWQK
UniProt O95639, whole entry, looked up: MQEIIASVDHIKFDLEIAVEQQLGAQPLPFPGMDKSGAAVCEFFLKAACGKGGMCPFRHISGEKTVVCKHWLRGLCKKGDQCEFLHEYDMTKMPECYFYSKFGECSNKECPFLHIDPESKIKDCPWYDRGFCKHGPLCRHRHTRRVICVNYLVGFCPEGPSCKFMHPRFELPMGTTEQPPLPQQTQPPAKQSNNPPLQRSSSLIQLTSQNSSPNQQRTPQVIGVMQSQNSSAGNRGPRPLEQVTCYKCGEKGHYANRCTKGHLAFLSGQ
UniProt P02458, whole entry, looked up: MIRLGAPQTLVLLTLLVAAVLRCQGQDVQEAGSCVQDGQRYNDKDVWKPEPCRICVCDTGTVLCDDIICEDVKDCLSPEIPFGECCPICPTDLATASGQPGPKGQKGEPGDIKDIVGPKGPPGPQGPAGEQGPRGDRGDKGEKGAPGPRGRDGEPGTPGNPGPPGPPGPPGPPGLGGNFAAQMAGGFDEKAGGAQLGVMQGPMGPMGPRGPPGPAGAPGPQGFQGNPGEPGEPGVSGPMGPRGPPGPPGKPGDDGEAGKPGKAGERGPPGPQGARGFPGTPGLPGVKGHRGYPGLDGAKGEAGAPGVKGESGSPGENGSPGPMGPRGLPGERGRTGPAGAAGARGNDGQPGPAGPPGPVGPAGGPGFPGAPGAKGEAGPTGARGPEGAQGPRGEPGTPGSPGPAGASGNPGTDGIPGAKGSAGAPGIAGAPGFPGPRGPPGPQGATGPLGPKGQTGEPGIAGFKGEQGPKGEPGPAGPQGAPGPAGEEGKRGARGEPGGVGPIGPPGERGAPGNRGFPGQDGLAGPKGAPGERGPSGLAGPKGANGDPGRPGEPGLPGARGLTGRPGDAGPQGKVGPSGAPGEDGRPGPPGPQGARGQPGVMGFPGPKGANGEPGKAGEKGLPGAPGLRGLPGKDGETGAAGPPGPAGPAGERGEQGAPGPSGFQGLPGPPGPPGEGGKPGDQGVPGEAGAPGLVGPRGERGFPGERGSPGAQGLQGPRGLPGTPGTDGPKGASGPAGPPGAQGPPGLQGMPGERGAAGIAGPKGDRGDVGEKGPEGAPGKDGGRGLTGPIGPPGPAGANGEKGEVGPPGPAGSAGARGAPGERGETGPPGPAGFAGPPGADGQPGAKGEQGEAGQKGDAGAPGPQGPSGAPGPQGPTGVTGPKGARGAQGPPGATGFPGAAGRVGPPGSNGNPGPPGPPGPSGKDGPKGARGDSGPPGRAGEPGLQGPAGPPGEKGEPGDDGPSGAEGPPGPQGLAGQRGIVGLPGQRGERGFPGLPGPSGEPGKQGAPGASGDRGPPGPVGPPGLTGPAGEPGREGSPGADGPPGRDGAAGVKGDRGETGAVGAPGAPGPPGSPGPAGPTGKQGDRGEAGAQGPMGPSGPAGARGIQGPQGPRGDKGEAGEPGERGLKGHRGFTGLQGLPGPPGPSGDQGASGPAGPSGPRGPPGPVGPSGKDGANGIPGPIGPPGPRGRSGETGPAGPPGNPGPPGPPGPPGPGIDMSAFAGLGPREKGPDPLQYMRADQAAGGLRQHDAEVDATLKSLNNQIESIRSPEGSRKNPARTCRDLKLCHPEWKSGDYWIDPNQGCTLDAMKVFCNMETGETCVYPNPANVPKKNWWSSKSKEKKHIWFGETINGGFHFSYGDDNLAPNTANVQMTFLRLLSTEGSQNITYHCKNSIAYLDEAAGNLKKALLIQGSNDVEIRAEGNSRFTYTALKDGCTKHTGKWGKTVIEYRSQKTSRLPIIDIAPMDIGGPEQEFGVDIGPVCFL
UniProt P53674: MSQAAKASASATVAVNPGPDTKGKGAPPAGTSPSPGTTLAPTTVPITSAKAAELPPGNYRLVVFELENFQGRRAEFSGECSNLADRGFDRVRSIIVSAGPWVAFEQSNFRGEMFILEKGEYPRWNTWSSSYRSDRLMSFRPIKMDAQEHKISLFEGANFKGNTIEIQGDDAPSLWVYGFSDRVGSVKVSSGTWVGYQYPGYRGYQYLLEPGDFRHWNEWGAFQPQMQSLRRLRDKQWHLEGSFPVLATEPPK
UniProt Q8N6G5: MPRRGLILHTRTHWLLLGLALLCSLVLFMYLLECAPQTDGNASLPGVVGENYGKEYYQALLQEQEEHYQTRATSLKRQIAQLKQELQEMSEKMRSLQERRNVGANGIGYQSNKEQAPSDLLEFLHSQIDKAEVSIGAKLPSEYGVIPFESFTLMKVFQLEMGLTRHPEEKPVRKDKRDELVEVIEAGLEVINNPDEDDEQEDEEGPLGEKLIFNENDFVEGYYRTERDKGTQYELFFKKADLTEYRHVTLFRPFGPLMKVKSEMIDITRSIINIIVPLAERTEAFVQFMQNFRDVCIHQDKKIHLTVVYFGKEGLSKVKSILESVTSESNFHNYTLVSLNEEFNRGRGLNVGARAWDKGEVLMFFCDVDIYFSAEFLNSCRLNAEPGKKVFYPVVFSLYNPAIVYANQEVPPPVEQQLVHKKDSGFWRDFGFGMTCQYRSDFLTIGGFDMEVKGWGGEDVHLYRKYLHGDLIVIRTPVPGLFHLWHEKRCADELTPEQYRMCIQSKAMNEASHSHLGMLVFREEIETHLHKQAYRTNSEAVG

[2] = compound: NC1(c2ccc(-c3nc4ccn5c(=O)[nH]nc5c4cc3-c3ccccc3)cc2)CCC1
Summary of the method: as §1

[3] = compound: NCC(=O)Nc1ccc(-n2nc(C(F)(F)F)cc2-c2ccc3c(ccc4ccccc43)c2)cc1
Summary of the method: as §1

vorinostat = compound: O=C(CCCCCCC(=O)Nc1ccccc1)NO [vorinostat]
Summary of the method: as §1

silmitasertib = compound: O=C(O)c1ccc2c(c1)nc(Nc1cccc(Cl)c1)c1ccncc12 [silmitasertib]
Summary of the method: as §1

[4] = compound: O=C1NC(=O)C(c2cnc3ccccn23)=C1c1cn2c3c(cc(F)cc13)CN(C(=O)N1CCCCC1)CC2
Summary of the method: as §1

citarinostat = compound: O=C(CCCCCCNC(=O)c1cnc(N(c2ccccc2)c2ccccc2Cl)nc1)NO [citarinostat]
Summary of the method: as §1

[5] = compound: c1cc(OCCN2CCCCC2)cc(-c2n[nH]c3ccc(-c4nnc[nH]4)cc23)c1
Summary of the method: as §1

[6] = compound: NC(=O)Nc1cc(-c2cccc(F)c2)sc1C(=O)N[C@H]1CCCNC1
Summary of the method: as §1

entinostat = compound: Nc1ccccc1NC(=O)c1ccc(CNC(=O)OCc2cccnc2)cc1 [entinostat]
Summary of the method: as §1

Measured: log2 fold change

CPLX1 (UniProt O14810)
inactive: [1] -0.156 | [2] 0.287 | [3] -0.144 | vorinostat -0.13 | silmitasertib 0.036 | [4] -0.164

COMMD6 isoform 2 (UniProt Q7Z4G1)
inactive: [3] -0.436 | vorinostat 0.346 | citarinostat 0.095 | [4] -0.1 | [5] 0.045

COX14 (UniProt Q96I36)
inactive: [6] -0.037 | entinostat 0.017 | vorinostat 0.093 | citarinostat 0.184 | [4] -0.052 | [5] -0.092

CRY1 (UniProt Q16526)
inactive: [3] 0.107 | vorinostat 0.012 | [4] -0.267

COP1 (UniProt Q8NHY2)
inactive: [1] -0.371

COMMD3-BMI1 (UniProt R4GMX3)
inactive: [6] 0.003 | [1] 0.076 | entinostat -0.062 | vorinostat 0.109 | [4] -0.012

CRTC3 (UniProt Q6UUV7)
inactive: [2] -0.007 | [3] 0.001 | entinostat 0.057 | silmitasertib 0.098 | [4] 0.025
active: [6] -0.754

COQ10B (UniProt Q9H8M1)
inactive: [6] -0.235 | entinostat -0.194 | citarinostat 0.066 | [4] 0.023 | [5] 0.251

COX10 (UniProt Q12887)
inactive: [1] -0.087 | [2] -0.065 | [3] -0.068 | vorinostat 0.141 | citarinostat 0.073 | silmitasertib -0.022 | [4] -0.126 | [5] -0.068

CS (UniProt F8VU34)
inactive: citarinostat -0.298 | [5] -0.393

CRYM (UniProt Q14894)
inactive: vorinostat 0.21 | [4] 0.007

CRNN (UniProt Q9UBG3)
inactive: [2] 0.008 | silmitasertib -0.503

COMMD1 (UniProt Q8N668)
inactive: [6] -0.043 | [2] 0.051 | [3] -0.069 | entinostat 0.008 | vorinostat -0.032 | citarinostat 0.039 | silmitasertib -0.021 | [4] -0.018 | [5] -0.065

CSNK1A1 isoform 3 (UniProt P48729)
inactive: [2] -0.204 | silmitasertib 0

CRLS1 (UniProt Q9UJA2)
active: [6] 0.323
inactive: [2] 0.027 | [3] 0.06 | entinostat 0.151 | vorinostat -0.005 | citarinostat 0.012 | silmitasertib 0.017 | [5] -0.051

CRABP1 (UniProt P29762)
inactive: [3] 0.225 | vorinostat 0.365

CPN1 (UniProt P15169)
inactive: [3] -0.241

COMMD3 (UniProt Q9UBI1)
inactive: [1] 0.017 | [2] 0.022 | [3] -0.1 | citarinostat 0.012 | silmitasertib -0.011 | [5] -0.223

COLEC11 isoform 10 (UniProt Q9BWP8)
inactive: [1] -0.103 | [2] 0.002 | [3] -0.038 | silmitasertib -0.021 | [4] 0.085

CROCCP2 (UniProt Q86T23)
inactive: citarinostat -0.054 | [5] 0.006

CRABP2 (UniProt P29373)
inactive: [2] -0.064 | vorinostat -0.224 | silmitasertib -0.072 | [4] 0.076

COL25A1 (UniProt Q9BXS0)
inactive: [4] 0.111

CPEB2 isoform 9 (UniProt Q7Z5Q1)
inactive: [6] 0.011 | [1] -0.059 | [3] 0.367 | entinostat -0.227 | [4] -0.233

CPSF4 (UniProt O95639)
inactive: [1] -0.51 | [2] 0.155 | vorinostat 0.072 | silmitasertib 0.176

Copied from the entries so far (2 entries):
CROCCP2 (UniProt Q86T23)
inactive: citarinostat -0.054 | [5] 0.006

CRABP2 (UniProt P29373)
inactive: [2] -0.064 | vorinostat -0.224 | silmitasertib -0.072 | [4] 0.076

(cont.)

COL2A1 (UniProt P02458)
inactive: [1] 0.187 | [3] 0.123

CRYBB1 (UniProt P53674)
inactive: [4] 0.044

CSNK1G1 (UniProt Q9HCP0)
inactive: [6] 0.092 | [2] -0.09 | entinostat 0.103 | citarinostat 0.121 | silmitasertib -0.004 | [4] -0.207 | [5] -0.104

CPA4 (UniProt Q9UI42)
inactive: [1] 0.335 | [3] 0.223 | citarinostat -0.656 | [5] 1.61

CSGALNACT2 (UniProt Q8N6G5)
inactive: [1] -0.174 | [4] 0.018

CRCP (UniProt O75575)
inactive: [6] 0.07 | [2] 0.039 | entinostat 0.032 | vorinostat -0.072 | citarinostat -0.21 | silmitasertib 0.168 | [4] 0.193 | [5] 0.063

Source: the supplement of paper PMC10849652
